Results on one substance are retold here after publication doi:10.1101/2022.01.03.474851.

Protein sequences, listed by entry. Tags and fused reporters are not part of them.
UniProt P48112: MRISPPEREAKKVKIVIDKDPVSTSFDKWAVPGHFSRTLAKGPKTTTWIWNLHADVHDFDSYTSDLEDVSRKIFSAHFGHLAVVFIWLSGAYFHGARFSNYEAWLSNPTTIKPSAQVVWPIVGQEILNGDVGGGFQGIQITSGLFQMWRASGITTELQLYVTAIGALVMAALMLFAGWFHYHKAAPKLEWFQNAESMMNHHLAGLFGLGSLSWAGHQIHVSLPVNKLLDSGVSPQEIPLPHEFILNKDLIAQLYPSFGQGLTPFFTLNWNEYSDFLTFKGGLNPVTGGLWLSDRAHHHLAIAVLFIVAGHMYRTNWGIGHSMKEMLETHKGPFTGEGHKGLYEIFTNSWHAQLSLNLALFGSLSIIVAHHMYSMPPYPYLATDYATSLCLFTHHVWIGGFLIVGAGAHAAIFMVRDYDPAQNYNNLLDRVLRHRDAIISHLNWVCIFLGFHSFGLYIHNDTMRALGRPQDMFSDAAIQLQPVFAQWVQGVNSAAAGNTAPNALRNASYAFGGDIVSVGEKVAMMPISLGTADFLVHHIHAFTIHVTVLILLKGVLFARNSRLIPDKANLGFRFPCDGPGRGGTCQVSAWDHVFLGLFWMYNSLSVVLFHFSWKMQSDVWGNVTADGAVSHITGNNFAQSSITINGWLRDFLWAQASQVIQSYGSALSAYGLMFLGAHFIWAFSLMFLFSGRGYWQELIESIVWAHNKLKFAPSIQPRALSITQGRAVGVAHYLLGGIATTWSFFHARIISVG

In the experiment the target is PsaA (photosystem I subunit, gene product of psaA1) (Cyanophora paradoxa (endogenous, strain NIES-547)) (UniProt P48112). Description: cryo-EM structure.

These are yes or no findings as the source states them, for the method shown. Some entries that bind do so weakly or less than the wild type.

With “PsaA (photosystem I subunit, gene product of psaA1) (from UniProt P48112 1-752)”, the binding result is “binds”.
